We go through 1 molecule from article PMC5807518.

Sequences of proteins named here, by UniProt entry; tags and fusion partners are left off.
UniProt Q8C6L5: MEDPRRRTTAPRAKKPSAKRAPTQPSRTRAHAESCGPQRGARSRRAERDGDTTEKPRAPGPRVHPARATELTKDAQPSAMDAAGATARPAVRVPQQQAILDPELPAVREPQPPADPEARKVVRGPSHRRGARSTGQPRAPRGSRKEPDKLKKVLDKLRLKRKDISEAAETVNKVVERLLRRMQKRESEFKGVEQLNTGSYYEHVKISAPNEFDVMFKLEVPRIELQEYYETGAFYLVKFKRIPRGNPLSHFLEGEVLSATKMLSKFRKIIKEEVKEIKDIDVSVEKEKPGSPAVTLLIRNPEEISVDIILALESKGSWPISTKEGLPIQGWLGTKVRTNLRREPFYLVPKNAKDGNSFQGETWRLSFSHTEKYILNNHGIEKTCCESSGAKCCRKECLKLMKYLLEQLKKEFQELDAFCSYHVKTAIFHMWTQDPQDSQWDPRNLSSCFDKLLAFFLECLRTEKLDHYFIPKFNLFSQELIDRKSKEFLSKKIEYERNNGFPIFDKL

The target of this assay is cGAS-FLAG (cyclic GMP-AMP synthase, FLAG-tagged) (not stated (human or mouse cDNA cloned)) (UniProt Q8C6L5). The experiment in a line: affinity purification with mass spectrometry.

No constants are given. Whether binding was seen depends on the method and setting. In cells and extracts the contact can be indirect. A yes stands for co-enrichment or nearness to the bait. Other partners may have been found.

B1: Endogenous TRIM56 (protein, UniProt Q9BRZ2 1-755)
chain: MVSHGSSPSLLEALSSDFLACKICLEQLRAPKTLPCLHTYCQDCLAQLADGGRVRCPECRETVPVPPEGVASFKTNFFVNGLLDLVKARACGDLRAGKPACALCPLVGGTSTGGPATARCLDCADDLCQACADGHRCTRQTHTHRVVDLVGYRAGWYDEEARERQAAQCPQHPGEALRFLCQPCSQLLCRECRLDPHLDHPCLPLAEAVRARRPGLEGLLAGVDNNLVELEAARRVEKEALARLREQAARVGTQVEEAAEGVLRALLAQKQEVLGQLRAHVEAAEEAARERLAELEGREQVARAAAAFARRVLSLGREAEILSLEGAIAQRLRQLQGCPWAPGPAPCLLPQLELHPGLLDKNCHLLRLSFEEQQPQKDGGKDGAGTQGGEESQSRREDEPKTERQGGVQPQAGDGAQTPKEEKAQTTREEGAQTLEEDRAQTPHEDGGPQPHRGGRPNKKKKFKGRLKSISREPSPALGPNLDGSGLLPRPIFYCSFPTRMPGDKRSPRITGLCPFGPREILVADEQNRALKRFSLNGDYKGTVPVPEGCSPCSVAALQSAVAFSASARLYLINPNGEVQWRRALSLSQASHAVAALPSGDRVAVSVAGHVEVYNMEGSLATRFIPGGKASRGLRALVFLTTSPQGHFVGSDWQQNSVVICDGLGQVVGEYKGPGLHGCQPGSVSVDKKGYIFLTLREVNKVVILDPKGSLLGDFLTAYHGLEKPRVTTMVDGRYLVVSLSNGTIHIFRVRSPDS
As to B1, the binding result is recorded as “binds”.
